Experiment [1] addresses T1, TINAGL1-Flag (full-length, Flag-tagged human TINAGL1 in pcDNA3.1+) (human) (UniProt Q9GZM7).
T1 sequence: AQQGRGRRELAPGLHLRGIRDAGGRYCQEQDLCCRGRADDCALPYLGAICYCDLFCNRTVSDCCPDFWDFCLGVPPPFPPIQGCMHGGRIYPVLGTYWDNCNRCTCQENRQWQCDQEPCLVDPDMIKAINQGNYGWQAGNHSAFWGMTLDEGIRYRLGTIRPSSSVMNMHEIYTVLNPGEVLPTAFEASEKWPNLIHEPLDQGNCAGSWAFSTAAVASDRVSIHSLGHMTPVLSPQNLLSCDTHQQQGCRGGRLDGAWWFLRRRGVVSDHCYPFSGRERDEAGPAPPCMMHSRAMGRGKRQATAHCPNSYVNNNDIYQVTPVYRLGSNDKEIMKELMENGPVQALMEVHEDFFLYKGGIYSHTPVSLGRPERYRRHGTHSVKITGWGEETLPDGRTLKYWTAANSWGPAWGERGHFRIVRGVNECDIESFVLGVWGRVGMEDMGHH
Kind of experiment: co-IP; HEK293T cells co-transfected with TINAGL1-Flag and PDGF-BB-HA; IP lysis buffer; HA or Flag magnetic beads overnight at 4°C; Western blot with anti-HA and anti-Flag.

Sequences of proteins named here, by UniProt entry; tags and fusion partners are left off. A change or cut given only in a name is not applied to a line headed by its entry.
UniProt P01127: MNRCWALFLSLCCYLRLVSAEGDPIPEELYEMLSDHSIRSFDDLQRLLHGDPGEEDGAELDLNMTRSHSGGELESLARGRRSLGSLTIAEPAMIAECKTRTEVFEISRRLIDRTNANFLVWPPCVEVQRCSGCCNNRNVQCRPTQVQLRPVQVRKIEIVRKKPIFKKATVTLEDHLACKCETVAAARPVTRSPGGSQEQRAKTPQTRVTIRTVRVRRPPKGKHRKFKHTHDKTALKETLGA

In experiment [2] the target is T1, TINAGL1-Flag (full-length, Flag-tagged human TINAGL1 in pcDNA3.1+) (human). Kind of experiment: co-IP; Huh7.5 cells co-transfected with TINAGL1-Flag and PDGF-BB-HA; IP lysis buffer; HA or Flag magnetic beads overnight at 4°C; Western blot with anti-HA and anti-Flag. (A western blot detects proteins with antibodies after separation by electrophoresis.)

No constants are given. Whether binding was seen depends on the method and setting. Binding seen in cells or lysates may run through a third protein. Binding can be weak; no strength is given. Tags and fused reporters may be left off the sequences shown.

Turning to “PDGF-BB-HA (full-length human PDGFB cDNA with HA-tag) (from UniProt P01127) (ligand)”, the binding entry in experiment [1] and in experiment [2] was “binds” in each case.

For the origin of these results see PMC11705640, “Tubulointerstitial nephritis antigen-like 1 promotes the progression of liver fibrosis after HCV eradication with direct-acting antivirals” (International Journal of Biological Sciences, 2025).
